# Measured values reported in the supplement of paper PMC8728848.
# This is one part of the list.
# B1: OS9 (Arabidopsis thaliana) (protein)
# chain: MRGSHHHHHHGMASMTGGQQMGRDLYDDDDKSRLQIFPAHLVGTFSRNNREPKYKIEFLPEDSPFHPGDNLESMVMLDKHGNRFLCYLPKEEKATSGWTSSQQNISTVMMETQQLVKLKTPDELLQPLSEKCLFRQEGWWSYEFCHQKYVRQLHVEDENKIVQEFFLGTFDPEATAAFNQTVSDASTDASQRYHSHVYTNGTTCDLTGSPAEVEVRFVCAETRAMVTSITELSTCKYALTVQCPTLCKHPLFQLEKPVSHTIHCNAIPVEEDATRNKEEQAVDESPKMIADS
# Legend:
# Assay in all cases: glycan array binding signal (z-score within array); higher = stronger binding
# Conditions in all cases: glycan notation: IUPAC condensed, linker removed; mutation: R201A
# [1] = target: Gal(a1-3)Gal
# In short: (§1)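 Columns mapping to the same glycan were averaged after glycan names were converted to IUPAC-condensed notation. The data come from 3228 arrays in the Consortium for Functional Glycomics database, limited to those with an available protein sequence. Binding is reported as a within-array Z-score averaged across arrays of one protein sequence and across linkers.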
# [2] = target: Gal(a1-3)Gal(b1-3)GlcNAc
# In short: as §1
# [3] = target: Gal(a1-3)Gal(b1-3)GlcNAc(b1-2)Man
# In short: as §1
# [4] = target: Gal(a1-3)Gal(b1-3)GlcNAc(b1-2)Man(a1-3)[Gal(a1-3)Gal(b1-3)GlcNAc(b1-2)Man(a1-6)]Man(b1-4)GlcNAc(b1-4)GlcNAc
# In short: as §1
# [5] = target: Gal(a1-3)Gal(b1-3)GlcNAc(b1-3)GalNAc
# In short: as §1
# [6] = target: Gal(a1-3)Gal(b1-3)GlcNAc(b1-6)GalNAc
# In short: as §1
# [7] = target: Gal(a1-3)Gal(b1-3)[Fuc(a1-4)]GlcNAc(b1-2)Man(a1-3)[Gal(a1-3)Gal(b1-3)[Fuc(a1-4)]GlcNAc(b1-2)Man(a1-6)]Man(b1-4)GlcNAc(b1-4)GlcNAc
# In short: as §1
# [8] = target: Gal(a1-3)Gal(b1-4)Glc
# In short: as §1
# [9] = target: Gal(a1-3)Gal(b1-4)GlcNAc
# In short: as §1
# [10] = target: Gal(a1-3)Gal(b1-4)GlcNAc(b1-2)Man
# In short: as §1
# [11] = target: Gal(a1-3)Gal(b1-4)GlcNAc(b1-2)Man(a1-3)[Gal(a1-3)Gal(b1-4)GlcNAc(b1-2)Man(a1-6)]Man(b1-4)GlcNAc(b1-4)GlcNAc
# In short: as §1
# [12] = target: Gal(a1-3)Gal(b1-4)GlcNAc(b1-3)GalNAc
# In short: as §1
# [13] = target: Gal(a1-3)Gal(b1-4)GlcNAc(b1-6)GalNAc
# In short: as §1
# [14] = target: Gal(a1-3)Gal(b1-4)[Fuc(a1-3)]GlcNAc
# In short: as §1
# [15] = target: Gal(a1-3)Gal(b1-4)[Fuc(a1-3)]GlcNAc(b1-2)Man(a1-3)[Gal(a1-3)Gal(b1-4)[Fuc(a1-3)]GlcNAc(b1-2)Man(a1-6)]Man(b1-4)GlcNAc(b1-4)GlcNAc
# In short: as §1
# [16] = target: Gal(a1-3)GalNAc
# In short: as §1
# [17] = target: Gal(a1-3)[Gal(a1-4)]Gal(b1-4)GlcNAc
# In short: as §1
# [18] = target: Gal(a1-4)Gal(b1-3)GlcNAc(b1-2)Man(a1-3)[Gal(a1-4)Gal(b1-3)GlcNAc(b1-2)Man(a1-6)]Man(b1-4)GlcNAc(b1-4)GlcNAc
# In short: as §1
# [19] = target: Gal(a1-4)Gal(b1-4)Glc
# In short: as §1
# [20] = target: Gal(a1-4)Gal(b1-4)GlcNAc
# In short: as §1
# [21] = target: Gal(a1-4)Gal(b1-4)GlcNAc(b1-2)Man(a1-3)[Gal(a1-4)Gal(b1-4)GlcNAc(b1-2)Man(a1-6)]Man(b1-4)GlcNAc(b1-4)GlcNAc
# In short: as §1
# [22] = target: Gal(a1-4)Gal(b1-4)GlcNAc(b1-3)Gal(b1-4)Glc
# In short: as §1
# [23] = target: Gal(a1-4)GlcNAc
# In short: as §1
# [24] = target: Gal(a1-6)Glc
# In short: as §1
# [25] = target: Gal(b1-2)Gal
# In short: as §1
# [26] = target: Gal(b1-3)Gal
# In short: as §1
# [27] = target: Gal(b1-3)Gal(b1-4)GlcNAc
# In short: as §1
# [28] = target: Gal(b1-3)GalNAc
# In short: as §1
# [29] = target: Gal(b1-3)GalNAc(a1-3)[Fuc(a1-2)]Gal(b1-4)Glc
# In short: as §1
# [30] = target: Gal(b1-3)GalNAc(a1-3)[Fuc(a1-2)]Gal(b1-4)GlcNAc
# In short: as §1
# [31] = target: Gal(b1-3)GalNAc(b1-3)Gal
# In short: as §1
# [32] = target: Gal(b1-3)GalNAc(b1-3)Gal(a1-4)Gal(b1-4)Glc
# In short: as §1
# [33] = target: Gal(b1-3)GalNAc(b1-4)Gal(b1-4)Glc
# In short: as §1
# [34] = target: Gal(b1-3)GalNAc(b1-4)[Neu5Ac(a2-3)]Gal(b1-4)Glc
# In short: as §1
# [35] = target: Gal(b1-3)GlcNAc
# In short: as §1
# [36] = target: Gal(b1-3)GlcNAc(a1-3)Gal(b1-4)GlcNAc
# In short: as §1
# [37] = target: Gal(b1-3)GlcNAc(a1-6)Gal(b1-4)GlcNAc
# In short: as §1
# [38] = target: Gal(b1-3)GlcNAc(b1-2)Man
# In short: as §1
binder,measurement,setting,value
B1,glycan array binding signal (z-score),[1],0.103
same,glycan array binding signal (z-score),[2],-0.095
same,glycan array binding signal (z-score),[3],1.71
same,glycan array binding signal (z-score),[4],0.219
same,glycan array binding signal (z-score),[5],1.65
same,glycan array binding signal (z-score),[6],-0.999
same,glycan array binding signal (z-score),[7],1.34
same,glycan array binding signal (z-score),[8],0.911
same,glycan array binding signal (z-score),[9],-0.929
same,glycan array binding signal (z-score),[10],0.372
same,glycan array binding signal (z-score),[11],0.001
same,glycan array binding signal (z-score),[12],-0.927
same,glycan array binding signal (z-score),[13],-0.029
same,glycan array binding signal (z-score),[14],-0.062
same,glycan array binding signal (z-score),[15],0.205
same,glycan array binding signal (z-score),[16],-0.334
same,glycan array binding signal (z-score),[17],-0.09
same,glycan array binding signal (z-score),[18],0.266
same,glycan array binding signal (z-score),[19],-0.371
same,glycan array binding signal (z-score),[20],-0.218
same,glycan array binding signal (z-score),[21],-1.07
same,glycan array binding signal (z-score),[22],-0.456
same,glycan array binding signal (z-score),[23],-0.716
same,glycan array binding signal (z-score),[24],-0.349
same,glycan array binding signal (z-score),[25],0.542
same,glycan array binding signal (z-score),[26],0.546
same,glycan array binding signal (z-score),[27],-1.16
same,glycan array binding signal (z-score),[28],-0.06
same,glycan array binding signal (z-score),[29],-0.892
same,glycan array binding signal (z-score),[30],0.296
same,glycan array binding signal (z-score),[31],1.42
same,glycan array binding signal (z-score),[32],0.953
same,glycan array binding signal (z-score),[33],-0.298
same,glycan array binding signal (z-score),[34],-0.445
same,glycan array binding signal (z-score),[35],-0.401
same,glycan array binding signal (z-score),[36],-0.475
same,glycan array binding signal (z-score),[37],-0.716
same,glycan array binding signal (z-score),[38],-1.05
